The source of these data is patent US20260242756A1 (REPLIGEN, published 2026).

Like-named read-outs stand apart in the source and are kept apart here.

As usually defined, the Kd is the equilibrium constant for the complex coming apart. The low end stands for tighter binding, the high end for weaker binding.

For test [1], the target named is T1, Vaccina Virus Capping Enzyme (VCE) (Vaccinia virus, UniProt P04298 1-844; P04318 1-287).
Test [2] concerns the target T1, Vaccina Virus Capping Enzyme (VCE). This is another data set of the same source.

B1: biotinylated ligand corresponding to SEQ ID NO: 53 (designed binder)
chain: MGVDAKFDKELEEARAEIERLPNLTERQRRHFIEALRWDPSDSATLLADAKSWNDWQAPKGQAGQGAVDAKFDKELEEARAEIERLPNLTERQRRHFIEALRWDPSDSATLLADAKSWNDWQAPKGQAGQGGGSGLNDIFEAQKIEWHEHHHHHH
modifications: biotinylated with the Avitag system; the biotinylated residue is not stated
B1 yielded a Kd in test [1] of 2 nM.

B2: biotinylated ligand corresponding to SEQ ID NO: 23 (designed binder)
chain: MAQGTVDAKFDKELEEARAEIERLPNLTERQRRHFIEALRWDPSDSATLLADAKSWNDWQAPKGQAGQGGGSGLNDIFEAQKIEWHEHHHHHH
modifications: biotinylated with the Avitag system; the biotinylated residue is not stated
Take B2: binding in test [2] was put at a Kd of 26 nM.
